In US4299821A, “Tripeptides acting on the central nervous system and a process for the preparation thereof” (Richter Gedeon Vegyeszeti Gyar Rt., priority 1979, dated 1981):

Test system: Haloperidol-induced catalepsy
Assay: Inhibition of Haloperidol-induced catalepsy on rats
Type: in vivo, male Wistar rats
Conditions: time after i.v. treatment that the ED50 belongs to (checked at 15, 30, 60, 90, 120 min)
Experimental: (1) Inhibition of Haloperidol-induced catalepsy on rats (see J. Delay and P. Deniker: Compt. Rend. Congr. Med. Alenistes Neurologistes, 19, 497, Luxembourg, 1952)
The tests were performed on male Wistar rats weighing 160 to 180 g.
40 mg/kg of 4-(p-chlorophenyl)-1-(3-/p-fluorobenzoyl/propyl)-piperidin-4-ol(Haloperidol) were administered subcutaneously into the animals, and 120 minutes after this treatment the animals were checked for the appearance of catalepsy. The rats were divided into groups of 10 animals each, and treated intravenously with TRH or the new TRH analogues. The animals belonging to the control group received physiological saline. The catalepsy-suspending effects of the individual compounds were determined 15, 30, 60, 90 and 120 minutes after the treatment. The animals that had not changed their position for 30 seconds after placing their fore-paw onto a 7 cm high column were regarded as cataleptic.

SMILES	Inhibition of Haloperidol catalepsy, time [min]
CCCC[C@H](NC(=O)[C@@H]1CCC(=O)N1)C(=O)N1CCC[C@H]1C(N)=O [Nleu Pro H, L-Pyroglutamyl-L-norleucyl-L-prolinamide] ([pGlu]-[Nle]-Pro-NH2)	120
CCNC(=O)[C@@H]1CCCN1C(=O)[C@H](CC(C)C)NC(=O)[C@@H]1CCC(=O)N1 [Leu Pro Et, L-Pyroglutamyl-L-leucyl-L-proline ethylamide] ([pGlu]-Leu-Pro-NHEt)	30
CCC[C@H](NC(=O)[C@@H]1CCC(=O)N1)C(=O)N1CCC[C@H]1C(N)=O [Nva Pro H, L-Pyroglutamyl-L-norvalyl-L-prolinamide] ([pGlu]-[Nva]-Pro-NH2)	120
CC[C@H](NC(=O)[C@@H]1CCC(=O)N1)C(=O)N1CCC[C@H]1C(N)=O [Abu Pro H, L-Pyroglutamyl-L-α-aminobutyl-L-prolinamide] ([pGlu]-[Abu]-Pro-NH2)	15
NC(=O)[C@@H]1CCCCN1C(=O)[C@H](Cc1c[nH]cn1)NC(=O)[C@@H]1CCC(=O)N1 [His HPro H, L-Pyroglutamyl-L-histidyl-L-homoprolinamide]	120
NC(=O)[C@@H]1CCCN1C(=O)[C@H](Cc1c[nH]cn1)NC(=O)[C@@H]1CCC(=O)N1 [TRH, L-pyroglutamyl-L-histidyl-L-prolinamide, reference compound]	15

Where a SMILES comes first, the peptide text is derived from it. [ ]: non-standard residue; d: D form. pGlu = O=C1CC[C@@H](C(=O)O)N1; Nle = CCCC[C@H](N)C(=O)O; Nva = CCC[C@H](N)C(=O)O; Abu = CC[C@H](N)C(=O)O
